From PubChem BioAssay AID540256 (National Center for Advancing Translational Sciences (NCATS), 2011)
Out of some 300,000 compounds screened, about 3,700 (1.2%) were called active. Inconclusive results, whose numbers are uncertain, are shown with a selection of clear calls. Calls follow the shape of the full dose curve; tested in HEK293 cells. Potencies beside an inconclusive call are fits to weak or partial responses and may not hold up.

assay: qHTS for Inhibitors of binding or entry into cells for Lassa Virus; details: Lassa virus pseudotype entry inhibition, cell reporter; activity change, negative = inhibition: at 37.9 µM (top of the series) unless noted; also: nearly all actives have a fitted effect of over 50% in size
% is scaled to controls: 0 for no effect and ±100 for the full control effect; potency is read from the fitted curve at half-maximal effect.

Compound | activity change, negative = inhibition | Potency
COc1ccc(OC)c(CNC(=O)c2ccccc2NC(=O)c2nsc3ccccc23)c1 | inactive: 1.41% [at 46.1 µM] | –
Clc1ccc(COC(Cn2ccnc2)c2ccc(Cl)cc2Cl)c(Cl)c1 (stereo not given) | – | inconclusive: 29.1 µM [inhibitor, single point]
Cc1ccccc1NC1=C/C(=N\S(=O)(=O)c2ccc(C(=O)O)cc2)c2ccccc2C1=O | – | inconclusive: 3.16 µM [inhibitor, partial curve, poor fit]
CCCC1(C(=O)OCC)NC(c2cc(OC)c(OC)c(OC)c2)C2C(=O)N(CC)C(=O)C21 (stereo not given) | inactive: -20.5% | –
NC(=O)CS(=O)(=O)c1nc2ccccc2n1Cc1ccccc1F | – | inconclusive: 8.2 µM [inhibitor, partial curve]
O=C(/C=C/c1ccccc1)CCN1CCOCC1 | – | inconclusive: 35.5 µM [inhibitor, single point]
CCOc1ccc(-c2cc(C(=O)N/N=C/c3cccnc3)c3ccccc3n2)cc1 | – | inconclusive: 14.1 µM [inhibitor, partial curve, poor fit]
Cc1ccc(C2=Nc3ccccc3N(CC(=O)Nc3ccccc3C)C(=O)C2)cc1C | inactive: 6.88% [at 46.1 µM] | –
CN1CCN(CCCCC(=O)c2ccccc2)CC1 | inactive: 1.45% | –
Cc1cc(C)cc(N(CC(=O)NC2CCCC2)C(=O)CCC(=O)Nc2cc(C)ccn2)c1 | – | inconclusive: 35.5 µM [activator, single point]
CC(C)(C)c1ccc(C(=O)NC(=S)Nc2sc3c(c2C#N)CCC3)cc1 | – | inconclusive: 7.94 µM [inhibitor, partial curve, poor fit]
COc1cccc(C(=O)Nc2cccc(OCC(=O)O)c2)c1 | inactive: 7.76% | –
CCN(CC)S(=O)(=O)c1ccc(S(=O)(=O)N2CCCC(C(=O)NC3CC3)C2)cc1 (stereo not given) | inactive: -19% | –
CCOC(=O)c1cnc(Nc2ccccc2)nc1C(F)(F)F | – | inconclusive: 35.5 µM [inhibitor, single point]
Cc1ccc2nc(C(=O)N3CCc4c([nH]c5ccccc45)C3c3ccccn3)cn2c1 (stereo not given) | inactive: -12.3% | –
CCn1c(SCc2ccccc2)nc2ccccc2c1=O | inactive: 3.15% [at 46.1 µM] | –
CCN(CC)CCNC(=O)NC(=O)c1ccc(Cl)cc1 | – | inconclusive: 3.55 µM [activator, partial curve, poor fit]
CC(C)(C)C1CCc2onc(C(=O)Nc3ccc4c(c3)OCO4)c2C1 (stereo not given) | – | inconclusive: 1.41 µM [inhibitor, full curve, poor fit]
N#C/C(=C(/O)COC(=O)c1ccc2c(c1)OCCO2)c1nc2ccccc2[nH]1 | – | inconclusive: 14.1 µM [inhibitor, single point]
COc1ccc(NS(=O)(=O)c2ccc(Oc3ncccn3)cc2)cc1 | – | inconclusive: 35.5 µM [inhibitor, single point]
CN(C)c1ccc(NC(=O)CN2C(=O)c3ccccc3C2=O)cc1 | – | inconclusive: 35.5 µM [activator, single point]
COc1ccc(S(=O)(=O)NNC(N)=S)cc1 | inactive: -22.2% | –
CN(CC/C=C1/c2ccccc2CSc2ccccc21)CCCO | – | inconclusive: 18.4 µM [inhibitor, single point]

An excerpt of these results, as labelled records.
CN1CCN(CCCCC(=O)c2ccccc2)CC1
  activity change, negative = inhibition: inactive: 1.45%
COc1cccc(C(=O)Nc2cccc(OCC(=O)O)c2)c1
  activity change, negative = inhibition: inactive: 7.76%
CC(C)(C)C1CCc2onc(C(=O)Nc3ccc4c(c3)OCO4)c2C1 (stereo not given)
  Potency: inconclusive: 1.41 µM [inhibitor, full curve, poor fit]

Continued:

Compound | activity change, negative = inhibition | Potency
O=C(CSc1nnc(Cn2nnc(-c3ccccc3)n2)n1-c1ccccc1)Nc1ccc(F)cc1 | inactive: -14.9% | –
C#CCn1c(/C=C/c2ccc(Cl)cc2)nc2ccccc21 | – | inconclusive: 1.78 µM [activator, partial curve, poor fit]
Brc1c(OCCOCCn2cncn2)ccc2ccccc12 | inactive: 10.6% | –
O=C(NC1CCCCC1)C1c2ccccc2C(=O)N1Cc1ccc2c(c1)OCO2 (stereo not given) | – | inconclusive: 8.91 µM [inhibitor, partial curve, poor fit]
O=C(NCc1nnc2c3ccccc3c(-c3ccccc3)nn12)c1ccc(Cl)cc1 | – | inconclusive: 11.2 µM [inhibitor, partial curve, poor fit]
CCN(CC)CCCNC(=O)CCCn1c(=O)[nH]c2ccc(Br)cc2c1=O | inactive: 2.4% [at 46.1 µM] | –
Cc1ccc(C(=O)/C=C/Nc2ccc(S(=O)(=O)Nc3cc(C)nc(C)n3)cc2)cc1 | inactive: -15.3% | –
OCCN=C1CCCc2c1[nH]c1ccc(Br)cc21 | inactive: -7.68% | –
COc1ccc(-c2cc(C(=O)N(C)CC(=O)Nc3ccccc3Br)c3ccccc3n2)cc1OC | – | inconclusive: 11.2 µM [inhibitor, partial curve, poor fit]
Cc1ccc(N(C)S(=O)(=O)c2ccc3c(c2)C(C)(C)C(=O)N3C)cc1C | – | inconclusive: 11.2 µM [inhibitor, partial curve, poor fit]
O=C1c2cccc(NCCCNCCO)c2C(=O)c2cccc(NCCCNCCO)c21 | inactive: -16.5% [at 46.1 µM] | –
CCOCCn1c(COc2ccccc2)nc2ccccc21 | inactive: 12.9% | –
COc1ccc(CC(=O)O/N=C(\N)c2ccc(OC)cc2)cc1 | – | inconclusive: 7.08 µM [inhibitor, partial curve]
CN1C(=O)c2ccccc2Sc2ccc(NC(=O)Cc3c(F)cccc3Cl)cc21 | – | inconclusive: 0.891 µM [inhibitor, single point]
C/C(=N\NC(=O)CSc1nc2ccccc2s1)c1ccco1 | – | inconclusive: 12.6 µM [inhibitor, single point]
CCC(CC)C(=O)Nc1ccc(C(=O)OCc2cc(=O)n3nc(C4CC4)sc3n2)cc1 | – | inconclusive: 3.98 µM [inhibitor, single point]
Cc1ccc(S(=O)(=O)N(C)CC(=O)OCC(=O)N2CCN(c3ccccc3)CC2)cc1 | – | inconclusive: 6.31 µM [activator, single point]
CC1CCN(C(=O)CN(c2ccc3c(c2)OCO3)S(C)(=O)=O)CC1 | inactive: -3.66% | –
Cc1ccccc1-c1noc(-c2ccccc2C(=O)O)n1 | inactive: 4.54% | –
Cc1ccccc1OCc1n(CC(=O)OC2CC(C)CCC2C(C)C)c2ccccc2[n+]1C (stereo not given) | – | inconclusive: 35.5 µM [inhibitor, single point]
CCCOc1ccc(C(C)=O)cc1Cc1c(O)[nH]c(=S)[nH]c1=O | – | inconclusive: 0.794 µM [inhibitor, single point]
COCCNC(=O)Cn1cnc2ccc(S(=O)(=O)N3CCC(C)CC3)cc2c1=O | – | inconclusive: 0.631 µM [activator, single point]
